Experimental data reported in the supplement of paper PMC10849652.
The other results are listed elsewhere or left out.

Sequences of proteins named here, by UniProt entry; tags and fusion partners are left off. A change or cut given only in a name is not applied to a line headed by its entry.
UniProt O95714: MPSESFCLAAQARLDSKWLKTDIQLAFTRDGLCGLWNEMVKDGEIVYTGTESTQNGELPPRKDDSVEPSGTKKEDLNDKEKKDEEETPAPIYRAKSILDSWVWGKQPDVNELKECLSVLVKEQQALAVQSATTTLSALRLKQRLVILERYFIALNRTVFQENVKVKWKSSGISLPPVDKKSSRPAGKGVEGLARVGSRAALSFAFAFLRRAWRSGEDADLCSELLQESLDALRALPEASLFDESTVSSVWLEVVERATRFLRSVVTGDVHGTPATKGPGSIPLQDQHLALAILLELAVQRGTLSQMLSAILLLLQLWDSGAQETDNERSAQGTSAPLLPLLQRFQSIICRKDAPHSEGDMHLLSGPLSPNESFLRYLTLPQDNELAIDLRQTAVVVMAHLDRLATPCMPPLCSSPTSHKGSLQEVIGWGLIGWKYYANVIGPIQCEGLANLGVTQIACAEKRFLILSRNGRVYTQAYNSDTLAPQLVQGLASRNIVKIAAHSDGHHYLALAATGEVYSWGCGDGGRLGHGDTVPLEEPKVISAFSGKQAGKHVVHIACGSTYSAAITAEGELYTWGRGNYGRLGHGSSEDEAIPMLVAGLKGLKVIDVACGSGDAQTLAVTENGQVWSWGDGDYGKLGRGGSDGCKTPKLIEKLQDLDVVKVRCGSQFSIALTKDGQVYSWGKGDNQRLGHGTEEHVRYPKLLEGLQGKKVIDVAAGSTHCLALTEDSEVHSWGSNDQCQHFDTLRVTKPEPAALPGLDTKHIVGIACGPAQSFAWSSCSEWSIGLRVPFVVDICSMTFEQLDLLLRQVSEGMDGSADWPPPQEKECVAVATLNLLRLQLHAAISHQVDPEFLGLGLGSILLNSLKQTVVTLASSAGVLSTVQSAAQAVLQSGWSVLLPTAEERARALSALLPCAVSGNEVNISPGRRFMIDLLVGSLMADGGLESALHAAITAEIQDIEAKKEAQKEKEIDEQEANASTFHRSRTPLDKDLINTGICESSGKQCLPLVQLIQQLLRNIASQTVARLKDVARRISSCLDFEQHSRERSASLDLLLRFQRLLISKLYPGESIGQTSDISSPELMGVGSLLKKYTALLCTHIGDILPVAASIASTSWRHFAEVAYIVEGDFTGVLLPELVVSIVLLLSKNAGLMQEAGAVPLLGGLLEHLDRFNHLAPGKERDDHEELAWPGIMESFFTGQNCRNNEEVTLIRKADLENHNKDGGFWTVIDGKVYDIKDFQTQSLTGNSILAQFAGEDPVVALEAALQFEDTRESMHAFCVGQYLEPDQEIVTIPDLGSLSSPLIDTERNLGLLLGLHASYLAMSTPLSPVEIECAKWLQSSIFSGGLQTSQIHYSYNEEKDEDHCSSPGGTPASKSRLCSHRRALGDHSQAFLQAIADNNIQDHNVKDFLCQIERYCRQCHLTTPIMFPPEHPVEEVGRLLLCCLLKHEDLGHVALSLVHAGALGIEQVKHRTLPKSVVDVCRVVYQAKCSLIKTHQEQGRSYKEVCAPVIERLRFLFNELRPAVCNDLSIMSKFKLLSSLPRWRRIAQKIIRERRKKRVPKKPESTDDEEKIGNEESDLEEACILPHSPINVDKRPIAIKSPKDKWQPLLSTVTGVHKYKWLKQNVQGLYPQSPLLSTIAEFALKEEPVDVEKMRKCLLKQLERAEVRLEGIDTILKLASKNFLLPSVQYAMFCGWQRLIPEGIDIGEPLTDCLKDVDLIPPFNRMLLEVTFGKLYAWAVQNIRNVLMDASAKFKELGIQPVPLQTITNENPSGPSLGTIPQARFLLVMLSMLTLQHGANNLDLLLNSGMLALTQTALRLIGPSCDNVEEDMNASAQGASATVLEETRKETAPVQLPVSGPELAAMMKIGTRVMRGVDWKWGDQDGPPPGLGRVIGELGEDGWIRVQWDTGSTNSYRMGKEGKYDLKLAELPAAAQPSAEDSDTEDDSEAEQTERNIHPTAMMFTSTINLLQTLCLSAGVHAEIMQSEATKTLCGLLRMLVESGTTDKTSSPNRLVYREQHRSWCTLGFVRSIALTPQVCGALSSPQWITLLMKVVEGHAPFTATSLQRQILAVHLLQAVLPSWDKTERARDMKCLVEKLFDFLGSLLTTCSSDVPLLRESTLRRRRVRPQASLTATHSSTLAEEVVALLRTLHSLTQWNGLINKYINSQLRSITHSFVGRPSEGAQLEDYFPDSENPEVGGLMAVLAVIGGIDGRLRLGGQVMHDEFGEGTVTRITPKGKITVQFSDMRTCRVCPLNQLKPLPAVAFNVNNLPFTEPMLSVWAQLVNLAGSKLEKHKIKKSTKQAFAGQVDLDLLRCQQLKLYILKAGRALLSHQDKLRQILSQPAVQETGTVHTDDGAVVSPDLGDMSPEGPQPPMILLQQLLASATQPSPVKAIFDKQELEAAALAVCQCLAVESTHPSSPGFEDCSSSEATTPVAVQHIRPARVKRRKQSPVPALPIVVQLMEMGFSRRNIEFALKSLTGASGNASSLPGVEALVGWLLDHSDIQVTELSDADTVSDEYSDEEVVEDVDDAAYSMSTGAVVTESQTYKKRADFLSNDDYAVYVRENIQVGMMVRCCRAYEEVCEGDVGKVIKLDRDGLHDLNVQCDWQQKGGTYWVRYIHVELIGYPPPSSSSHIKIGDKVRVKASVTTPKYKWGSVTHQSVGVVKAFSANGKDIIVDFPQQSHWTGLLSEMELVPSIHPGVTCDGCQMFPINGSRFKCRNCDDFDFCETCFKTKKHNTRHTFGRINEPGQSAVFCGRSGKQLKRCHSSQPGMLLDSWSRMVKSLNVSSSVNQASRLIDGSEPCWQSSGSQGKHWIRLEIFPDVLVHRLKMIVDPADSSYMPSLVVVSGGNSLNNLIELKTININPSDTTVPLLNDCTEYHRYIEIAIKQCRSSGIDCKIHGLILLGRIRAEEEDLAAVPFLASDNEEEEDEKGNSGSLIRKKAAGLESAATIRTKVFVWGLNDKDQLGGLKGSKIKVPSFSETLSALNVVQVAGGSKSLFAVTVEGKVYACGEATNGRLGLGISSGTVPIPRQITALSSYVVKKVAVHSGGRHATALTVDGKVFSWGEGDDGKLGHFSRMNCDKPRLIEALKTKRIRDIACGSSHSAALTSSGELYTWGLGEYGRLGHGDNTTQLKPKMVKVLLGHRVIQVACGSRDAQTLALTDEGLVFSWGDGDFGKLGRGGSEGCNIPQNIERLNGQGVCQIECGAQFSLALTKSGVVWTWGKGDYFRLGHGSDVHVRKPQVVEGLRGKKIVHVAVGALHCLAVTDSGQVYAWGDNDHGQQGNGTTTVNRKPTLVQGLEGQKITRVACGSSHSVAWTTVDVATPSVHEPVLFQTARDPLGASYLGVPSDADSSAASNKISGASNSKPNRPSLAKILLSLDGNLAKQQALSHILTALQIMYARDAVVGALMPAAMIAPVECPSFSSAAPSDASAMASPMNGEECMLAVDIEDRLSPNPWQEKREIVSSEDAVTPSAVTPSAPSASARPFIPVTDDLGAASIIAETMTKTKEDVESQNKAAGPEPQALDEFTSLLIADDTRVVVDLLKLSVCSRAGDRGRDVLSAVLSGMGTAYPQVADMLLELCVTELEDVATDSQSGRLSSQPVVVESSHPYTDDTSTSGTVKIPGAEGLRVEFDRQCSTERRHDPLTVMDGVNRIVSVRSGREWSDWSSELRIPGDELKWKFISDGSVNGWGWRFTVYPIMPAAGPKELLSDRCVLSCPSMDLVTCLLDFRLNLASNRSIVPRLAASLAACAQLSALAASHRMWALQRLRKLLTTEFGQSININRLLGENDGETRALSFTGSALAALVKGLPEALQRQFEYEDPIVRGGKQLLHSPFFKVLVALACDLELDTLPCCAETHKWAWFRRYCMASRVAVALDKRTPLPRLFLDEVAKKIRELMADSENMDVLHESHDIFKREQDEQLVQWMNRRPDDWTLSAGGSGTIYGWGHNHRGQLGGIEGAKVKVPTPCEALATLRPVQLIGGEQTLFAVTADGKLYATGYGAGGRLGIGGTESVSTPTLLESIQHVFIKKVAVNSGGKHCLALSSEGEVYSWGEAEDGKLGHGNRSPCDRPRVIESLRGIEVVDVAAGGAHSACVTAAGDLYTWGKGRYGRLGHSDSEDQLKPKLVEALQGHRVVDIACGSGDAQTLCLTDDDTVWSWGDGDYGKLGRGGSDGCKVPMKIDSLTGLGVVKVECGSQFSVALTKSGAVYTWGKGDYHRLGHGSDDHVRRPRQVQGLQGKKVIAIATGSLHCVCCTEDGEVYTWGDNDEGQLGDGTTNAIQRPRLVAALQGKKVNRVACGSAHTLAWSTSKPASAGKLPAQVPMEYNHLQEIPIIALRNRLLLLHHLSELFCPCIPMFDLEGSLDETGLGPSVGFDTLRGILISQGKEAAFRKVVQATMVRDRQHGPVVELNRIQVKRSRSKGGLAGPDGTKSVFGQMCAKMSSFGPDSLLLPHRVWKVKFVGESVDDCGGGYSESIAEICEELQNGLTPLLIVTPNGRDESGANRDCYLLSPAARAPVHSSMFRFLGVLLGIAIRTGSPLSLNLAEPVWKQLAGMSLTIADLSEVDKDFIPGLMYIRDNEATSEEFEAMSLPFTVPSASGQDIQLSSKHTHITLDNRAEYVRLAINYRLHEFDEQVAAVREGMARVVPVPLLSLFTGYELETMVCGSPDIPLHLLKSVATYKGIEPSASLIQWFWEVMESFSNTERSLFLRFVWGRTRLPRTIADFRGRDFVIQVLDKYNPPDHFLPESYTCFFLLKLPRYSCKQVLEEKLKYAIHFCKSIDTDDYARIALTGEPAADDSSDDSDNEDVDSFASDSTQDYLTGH
UniProt Q6AI08: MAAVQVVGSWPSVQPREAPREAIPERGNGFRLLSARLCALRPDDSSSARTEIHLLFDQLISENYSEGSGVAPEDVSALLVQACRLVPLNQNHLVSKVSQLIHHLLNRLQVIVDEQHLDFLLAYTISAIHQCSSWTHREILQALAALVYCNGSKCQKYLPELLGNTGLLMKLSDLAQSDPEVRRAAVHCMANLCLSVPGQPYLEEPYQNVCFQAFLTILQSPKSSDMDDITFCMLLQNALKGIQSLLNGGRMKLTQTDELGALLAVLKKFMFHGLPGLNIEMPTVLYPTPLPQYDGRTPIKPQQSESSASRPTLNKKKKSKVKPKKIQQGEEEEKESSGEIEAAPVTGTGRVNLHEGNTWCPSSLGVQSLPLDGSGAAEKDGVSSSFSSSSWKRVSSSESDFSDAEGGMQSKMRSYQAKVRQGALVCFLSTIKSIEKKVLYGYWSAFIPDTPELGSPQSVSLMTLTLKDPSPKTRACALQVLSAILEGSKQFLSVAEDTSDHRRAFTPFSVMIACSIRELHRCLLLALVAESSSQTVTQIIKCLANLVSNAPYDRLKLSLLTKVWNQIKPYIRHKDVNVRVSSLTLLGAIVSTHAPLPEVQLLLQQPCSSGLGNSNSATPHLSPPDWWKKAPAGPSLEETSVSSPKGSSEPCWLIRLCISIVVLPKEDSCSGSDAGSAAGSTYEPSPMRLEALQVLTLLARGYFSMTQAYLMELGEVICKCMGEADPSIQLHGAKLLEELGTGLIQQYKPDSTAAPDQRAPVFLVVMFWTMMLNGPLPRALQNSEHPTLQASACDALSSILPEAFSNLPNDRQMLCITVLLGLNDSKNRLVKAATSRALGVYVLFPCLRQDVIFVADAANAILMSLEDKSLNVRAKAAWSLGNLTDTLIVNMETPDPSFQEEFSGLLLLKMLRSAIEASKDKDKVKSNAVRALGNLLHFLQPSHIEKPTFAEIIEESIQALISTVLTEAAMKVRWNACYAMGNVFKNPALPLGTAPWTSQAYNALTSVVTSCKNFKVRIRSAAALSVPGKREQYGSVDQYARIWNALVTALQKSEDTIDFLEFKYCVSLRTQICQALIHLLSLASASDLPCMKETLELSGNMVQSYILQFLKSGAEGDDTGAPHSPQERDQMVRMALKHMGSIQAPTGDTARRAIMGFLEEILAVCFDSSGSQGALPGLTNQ
UniProt O75367, whole entry, looked up: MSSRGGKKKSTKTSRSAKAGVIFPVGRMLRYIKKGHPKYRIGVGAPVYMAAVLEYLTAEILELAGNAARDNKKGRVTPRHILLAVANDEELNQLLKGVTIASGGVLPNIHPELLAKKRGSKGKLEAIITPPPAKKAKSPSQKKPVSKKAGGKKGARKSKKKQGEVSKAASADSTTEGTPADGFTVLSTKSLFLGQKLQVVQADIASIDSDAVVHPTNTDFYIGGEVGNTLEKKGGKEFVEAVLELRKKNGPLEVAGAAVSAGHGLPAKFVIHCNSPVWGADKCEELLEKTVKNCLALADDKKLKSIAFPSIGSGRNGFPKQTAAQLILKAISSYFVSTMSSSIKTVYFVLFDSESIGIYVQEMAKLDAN
UniProt Q92522: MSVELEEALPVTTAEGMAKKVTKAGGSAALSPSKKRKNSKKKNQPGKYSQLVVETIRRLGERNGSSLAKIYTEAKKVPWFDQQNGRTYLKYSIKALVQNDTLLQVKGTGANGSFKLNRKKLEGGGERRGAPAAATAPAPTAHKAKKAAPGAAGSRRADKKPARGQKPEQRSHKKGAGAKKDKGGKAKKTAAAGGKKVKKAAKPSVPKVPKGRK

What was measured:
Test in all cases: log2 fold change, soluble protein after heating vs DMSO (PISA); higher = thermal stabilisation; K562 cells, 10 uM, 30 min; active = over 0.2 and 3.5 SD of the protein, either way, in both replicates (recomputed)
[1] = compound: CC[C@@H]1C(=O)N(C)c2cnc(Nc3ccc(C(=O)NC4CCN(C)CC4)cc3OC)nc2N1C1CCCC1
Summary of the method: (§1)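 Quantification of soluble protein used TMTpro 16plex LC-MS/MS, with channel sums equalised. Samples were the supernatant after 21,000xg for 90 min of pooled aliquots from K562 cells (2×10^6 cells/mL) treated with 10 μM compound for 30 min, heated for 3 min over 48°C-58°C, and extracted in PBS with 0.5% NP-40 at 4°C. Values, from duplicates, describe thermal stability against control samples on a log2 fold-change scale.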

volasertib = compound: CC[C@@H]1C(=O)N(C)c2cnc(Nc3ccc(C(=O)N[C@H]4CC[C@H](N5CCN(CC6CC6)CC5)CC4)cc3OC)nc2N1C(C)C [volasertib]
Summary of the method: as §1

[2] = compound: CC[C@H](C)N1C=C(C2=C(C=C(C=C21)C3=CN=C(C=C3)N4CCNCC4)C(=O)NCC5=C(C=C(NC5=O)C)C)C
Summary of the method: as §1

epoxomicin = compound: CC[C@H](C)[C@@H](C(=O)N[C@@H]([C@@H](C)O)C(=O)N[C@@H](CC(C)C)C(=O)[C@]1(CO1)C)NC(=O)[C@H]([C@@H](C)CC)N(C)C(=O)C [epoxomicin]
Summary of the method: as §1

[3] = compound: CCn1c(C(=O)N(C2CC2)C2CC2)cc2c3c(ncn3C)c(Nc3cc(C)n(C)n3)nc21
Summary of the method: as §1

[4] = compound: CCn1cc(-c2ccnc3[nH]c(-c4cccc(CN(C)C)c4)cc23)c(-c2ccc(NC(=O)N(C)C)cc2)n1
Summary of the method: as §1

[5] = compound: CN(C)CC(=O)Nc1ccc2[nH]c(=O)c3ccccc3c2c1
Summary of the method: as §1

[6] = compound: CN1C2=C(C3=C1C(=O)N(N=C3)CC4=CC(=CC=C4)N)SC(=C2)S(=O)C
Summary of the method: as §1

[7] = compound: CN1CCC(CNc2ccc3ncc(-c4cccc(OC(F)(F)F)c4)n3n2)CC1
Summary of the method: as §1

rosiglitazone = compound: CN(CCOC1=CC=C(C=C1)C[C@H]2C(=O)NC(=O)S2)C3=CC=CC=N3 (racemic) [rosiglitazone]
Summary of the method: as §1

Measured: log2 fold change

H6PD (UniProt O95479)
inactive: [1] 0 | volasertib -0.15 | [2] 0.353 | epoxomicin -0.124 | [3] -0.159 | [4] 0.054 | [5] -0.222 | [6] 0.067 | [7] 0

HERC2 (UniProt O95714)
inactive: [1] 0.141 | volasertib -0.201 | [2] -0.016 | epoxomicin -0.132 | [4] 0.292 | [5] -0.051 | rosiglitazone 0.078 | [6] 0.429 | [7] 0.349

GYPC (UniProt P04921)
inactive: [1] 0.133 | volasertib 0.048 | [2] -0.045 | epoxomicin -0.037 | [3] -0.051 | [4] -0.048 | [5] -0.054 | rosiglitazone -0.078 | [6] -0.121 | [7] 0.113

HDAC2 (UniProt Q92769)
inactive: [1] 0.024 | volasertib -0.051 | [2] 0.026 | epoxomicin -0.049 | [4] -0.001 | [5] -0.003 | [6] -0.041 | [7] 0.056

HDDC2 (UniProt Q7Z4H3)
inactive: [1] 0.008 | volasertib 0.08 | [2] 0.014 | epoxomicin -0.006 | [4] -0.063 | [5] 0.025 | [6] -0.102 | [7] -0.066

HELB (UniProt Q8NG08)
inactive: [1] -0.093 | volasertib 0.071 | [2] -0.041 | epoxomicin 0.082 | [3] -0.198 | [4] -0.06 | [5] -0.054 | rosiglitazone -0.013 | [6] -0.081 | [7] 0.102

GTPBP10 (UniProt A4D1E9)
inactive: [1] 0.183 | volasertib 0.33 | [2] -0.045 | epoxomicin -0.153 | [3] -0.023 | [4] 0.304 | [5] 0.053 | rosiglitazone 0.016 | [6] 0.133 | [7] 0.104

HEXA (UniProt P06865)
inactive: [2] -0.028 | epoxomicin -0.012 | [4] -0.002 | [5] -0.021 | [6] -0.02
active: [1] -0.423 | volasertib -0.479 | [7] -0.63

GTF2A1 (UniProt P52655)
inactive: [1] -0.012 | volasertib 0.061 | [2] -0.051 | epoxomicin 0.201 | [4] 0.035 | [5] -0.006 | [6] -0.018 | [7] -0.051

HEATR5A (UniProt Q86XA9)
inactive: [1] -0.152 | volasertib -0.051 | [2] 0.176 | epoxomicin 0.087 | [3] -0.101 | [4] 0.07 | [5] 0.037 | rosiglitazone 0.034 | [6] -0.047 | [7] 0.022

HBZ (UniProt P02008)
inactive: [1] 0.03 | volasertib -0.065 | [2] -0.026 | [4] -0.021 | [5] 0.019 | [6] -0.012 | [7] 0.016
active: epoxomicin 0.288

GSTCD (UniProt Q8NEC7)
inactive: [1] 0.005 | volasertib -0.11 | [2] 0.037 | epoxomicin -0.036 | [3] -0.039 | [5] 0.054 | rosiglitazone 0.042

GTF2A2 (UniProt P52657)
inactive: [1] 0.053 | volasertib 0.097 | [2] -0.07 | epoxomicin 0.036 | [4] 0.025 | [5] -0.03 | [6] -0.046 | [7] -0.031

HDAC4 (UniProt P56524)
inactive: [1] -0.089 | volasertib -0.072 | [2] 0 | epoxomicin -0.033 | [3] 0.06 | [4] -0.079 | [5] -0.038 | rosiglitazone 0.045 | [7] -0.082

HEATR6 (UniProt Q6AI08)
inactive: [1] -0.082 | volasertib -0.27 | [2] -0.006 | epoxomicin 0.08 | [3] -0.067 | [5] 0.075 | rosiglitazone -0.016 | [6] -0.027

GSN (UniProt P06396)
inactive: [1] -0.026 | volasertib -0.011 | [2] -0.069 | epoxomicin -0.12 | [3] 0 | [4] -0.035 | [5] -0.092 | rosiglitazone 0.077 | [6] 0.112 | [7] -0.023

GSPT2 (UniProt Q8IYD1)
inactive: [1] 0.019 | volasertib -0.007 | [2] -0.033 | epoxomicin 0.091 | [3] -0.03 | [4] 0.04 | [5] -0.039 | rosiglitazone -0.032 | [6] -0.058 | [7] 0.038

H2AFY (UniProt O75367)
inactive: [1] -0.063 | volasertib -0.075 | [2] -0.224 | epoxomicin -0.209 | [3] -0.127 | [4] 0.043 | rosiglitazone 0.102 | [7] 0.094

HAT1 (UniProt O14929)
active: volasertib -0.313
inactive: [1] -0.185 | [2] 0.02 | epoxomicin 0.035 | [4] -0.057 | [5] -0.007 | [6] -0.081 | [7] 0.026

HAUS4 (UniProt Q9H6D7)
inactive: [1] -0.138 | volasertib -0.027 | [2] 0.123 | epoxomicin -0.391 | [4] 0.032 | [5] -0.072 | [6] 0.246 | [7] 0.049

H3-2 (UniProt Q5TEC6)
inactive: [1] 0.073 | volasertib 0.033 | [2] -0.218 | [3] -0.007 | [4] 0.15 | [5] -0.436 | rosiglitazone -0.052 | [7] -0.155

GSTM4 (UniProt Q03013)
inactive: [1] 0.202 | volasertib 0.095 | [2] 0.039 | epoxomicin -0.009 | [4] -0.063 | [5] 0.025 | [6] -0.054 | [7] -0.182

HELZ (UniProt P42694)
inactive: [1] 0.11 | volasertib -0.128 | [2] 0.075 | [3] -0.114 | [4] 0.041 | [5] -0.138 | rosiglitazone -0.122 | [6] 0.238 | [7] 0.02

HADHA (UniProt P40939)
inactive: [1] 0.03 | volasertib 0.469 | [2] 0.107 | epoxomicin 0.055 | [4] -0.233 | [5] 0.023 | [6] -0.053 | [7] -0.334

GYG1 (UniProt P46976)
inactive: [1] 0.107 | volasertib 0.338 | [2] 0 | epoxomicin -0.104 | [4] -0.045 | [5] 0.019 | [6] 0.016 | [7] -0.011

H1FX (UniProt Q92522)
inactive: [1] 0.166 | volasertib 0.415 | [2] -0.003 | epoxomicin -0.201 | [4] 0.041 | [5] -0.115 | [6] 0.287 | [7] 0.129

HEATR3 (UniProt Q7Z4Q2)
inactive: [1] -0.308 | [2] 0.033 | epoxomicin 0.039 | [4] 0.276 | [5] 0.058 | [6] 0.007 | [7] -0.34
active: volasertib -0.36

GYS1 (UniProt P13807)
inactive: [1] 0.229 | volasertib 0.224 | [2] 0.059 | epoxomicin -0.034 | [4] 0.139 | [5] 0.029 | [6] 0.364 | [7] 0.123

Reprinted at random: two records from the list, in no set order.
GYS1 (UniProt P13807)
inactive: [1] 0.229 | volasertib 0.224 | [2] 0.059 | epoxomicin -0.034 | [4] 0.139 | [5] 0.029 | [6] 0.364 | [7] 0.123

H1FX (UniProt Q92522)
inactive: [1] 0.166 | volasertib 0.415 | [2] -0.003 | epoxomicin -0.201 | [4] 0.041 | [5] -0.115 | [6] 0.287 | [7] 0.129
